Measurements from publication PMC4652285.
No constants are given. Whether binding was seen depends on the method and setting. In cells and extracts the contact can be indirect. Some results given as binding are weak or reduced against the parent protein; the word gives no strength. For part of these data: Where a sequence is shown, tags or fusion partners need not be part of it.

T1: Recombinant mouse Gpnmb lacking signal peptide tagged with 3xFLAG peptides (mouse) (UniProt Q99P91)
T1 sequence: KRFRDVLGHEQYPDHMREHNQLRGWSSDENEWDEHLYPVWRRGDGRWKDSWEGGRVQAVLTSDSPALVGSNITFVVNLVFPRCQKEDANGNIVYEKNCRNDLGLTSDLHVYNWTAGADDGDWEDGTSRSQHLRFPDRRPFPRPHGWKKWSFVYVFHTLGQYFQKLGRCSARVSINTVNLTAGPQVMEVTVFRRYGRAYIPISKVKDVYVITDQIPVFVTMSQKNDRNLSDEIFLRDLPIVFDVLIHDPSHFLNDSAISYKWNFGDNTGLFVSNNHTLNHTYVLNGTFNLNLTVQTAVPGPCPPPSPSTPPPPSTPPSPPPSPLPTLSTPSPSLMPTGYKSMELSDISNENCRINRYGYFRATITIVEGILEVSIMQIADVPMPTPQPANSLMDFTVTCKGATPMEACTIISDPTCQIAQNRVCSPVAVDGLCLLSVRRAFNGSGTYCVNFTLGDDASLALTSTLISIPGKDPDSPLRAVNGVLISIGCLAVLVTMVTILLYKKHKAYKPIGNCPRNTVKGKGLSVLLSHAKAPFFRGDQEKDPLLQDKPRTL

T2: calnexin (mouse tissues) (mouse (endogenous in mouse liver and adipose stromal vascular fractions)) (UniProt P35564)
T2 sequence: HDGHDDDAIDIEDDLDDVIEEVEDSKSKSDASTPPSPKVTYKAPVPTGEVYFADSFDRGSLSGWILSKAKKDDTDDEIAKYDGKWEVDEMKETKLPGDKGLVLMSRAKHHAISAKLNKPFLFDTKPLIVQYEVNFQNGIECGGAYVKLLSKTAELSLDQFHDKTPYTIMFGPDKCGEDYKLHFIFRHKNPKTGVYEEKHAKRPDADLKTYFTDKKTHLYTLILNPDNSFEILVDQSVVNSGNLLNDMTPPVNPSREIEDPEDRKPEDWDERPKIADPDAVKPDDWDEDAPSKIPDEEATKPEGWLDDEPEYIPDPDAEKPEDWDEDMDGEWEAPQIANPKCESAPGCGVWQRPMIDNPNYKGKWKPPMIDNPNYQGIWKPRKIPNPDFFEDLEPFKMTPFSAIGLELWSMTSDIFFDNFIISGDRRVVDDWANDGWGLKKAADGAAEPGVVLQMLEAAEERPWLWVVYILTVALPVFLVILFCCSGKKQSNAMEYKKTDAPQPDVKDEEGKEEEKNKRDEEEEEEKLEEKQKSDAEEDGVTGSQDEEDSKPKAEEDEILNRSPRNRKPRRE


Key:
[1] = biological target: T1, Recombinant mouse Gpnmb lacking signal peptide tagged with 3xFLAG peptides (mouse); test: co-IP; LI90 cells transfected with p3xFLAG-mGpnmb; precipitated with anti-FLAG M2 affinity resin, blotted with anti-calnexin antibody
[2] = biological target: T2, calnexin (mouse tissues) (mouse (endogenous in mouse liver and adipose stromal vascular fractions)); test: co-IP; cell lysates of stromal vascular fractions from epididymal adipose tissues; immunoprecipitated with anti-calnexin antibody, immunoblotted with anti-Gpnmb antibody
[3] = biological target: T2, calnexin (mouse tissues) (mouse (endogenous in mouse liver and adipose stromal vascular fractions)); test: proximity ligation; Duolink PLA on frozen liver sections of Gpnmb Tg mice; goat anti-Gpnmb and rabbit anti-calnexin primary antibodies, PLA probes anti-goat PLUS and anti-rabbit MINUS; counterstained with anti-F4/80

Row | binding [1] | binding [2] | binding [3] | Binder
1 | binds |  |  | calnexin (protein, UniProt P27824 21-592) HDGHDDDVIDIEDDLDDVIEEVEDSKPDTTAPPSSPKVTYKAPVPTGEVYFADSFDRGTLSGWILSKAKKDDTDDEIAKYDGKWEVEEMKESKLPGDKGLVLMSRAKHHAISAKLNKPFLFDTKPLIVQYEVNFQNGIECGGAYVKLLSKTPELNLDQFHDKTPYTIMFGPDKCGEDYKLHFIFRHKNPKTGIYEEKHAKRPDADLKTYFTDKKTHLYTLILNPDNSFEILVDQSVVNSGNLLNDMTPPVNPSREIEDPEDRKPEDWDERPKIPDPEAVKPDDWDEDAPAKIPDEEATKPEGWLDDEPEYVPDPDAEKPEDWDEDMDGEWEAPQIANPRCESAPGCGVWQRPVIDNPNYKGKWKPPMIDNPSYQGIWKPRKIPNPDFFEDLEPFRMTPFSAIGLELWSMTSDIFFDNFIICADRRIVDDWANDGWGLKKAADGAAEPGVVGQMIEAAEERPWLWVVYILTVALPVFLVILFCCSGKKQTSGMEYKKTDAPQPDVKEEEEEKEEEKDKGDEEEEGEEKLEEKQKSDAEEDGGTVSQEEEDRKPKAEEDEILNRSPRNRKPRRE
2 |  | binds | binds | Gpnmb (glycoprotein nonmelanoma protein B) in aP2 promoter-driven Gpnmb transgenic mice (protein, UniProt Q99P91 23-574) KRFRDVLGHEQYPDHMREHNQLRGWSSDENEWDEHLYPVWRRGDGRWKDSWEGGRVQAVLTSDSPALVGSNITFVVNLVFPRCQKEDANGNIVYEKNCRNDLGLTSDLHVYNWTAGADDGDWEDGTSRSQHLRFPDRRPFPRPHGWKKWSFVYVFHTLGQYFQKLGRCSARVSINTVNLTAGPQVMEVTVFRRYGRAYIPISKVKDVYVITDQIPVFVTMSQKNDRNLSDEIFLRDLPIVFDVLIHDPSHFLNDSAISYKWNFGDNTGLFVSNNHTLNHTYVLNGTFNLNLTVQTAVPGPCPPPSPSTPPPPSTPPSPPPSPLPTLSTPSPSLMPTGYKSMELSDISNENCRINRYGYFRATITIVEGILEVSIMQIADVPMPTPQPANSLMDFTVTCKGATPMEACTIISDPTCQIAQNRVCSPVAVDGLCLLSVRRAFNGSGTYCVNFTLGDDASLALTSTLISIPGKDPDSPLRAVNGVLISIGCLAVLVTMVTILLYKKHKAYKPIGNCPRNTVKGKGLSVLLSHAKAPFFRGDQEKDPLLQDKPRTL
